Data as given in PubChem BioAssay AID652243 (Drosophila RNAi Screening Center, 2013).

Assay: 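Fly genes required for human androgen receptor driven transcription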 (primary screen)
Cells: Drosophila S2R+ cells
Reagents: long dsRNA against Drosophila genes
Duration: 72 h (48 h, then 24 h hormone)
Challenge: synthetic androgen R1881 at 10 nM for 24 h
Measurement: 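Firefly light from an androgen-responsive reporter and Renilla control light per well, raw and unnormalised, for each of two replicates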
Reading the numbers: firefly reporter light: higher = more light from androgen-responsive reporter; Renilla control light: higher = more constitutive control signal (cell number, transfection)
Hit rule: 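Hit when the log firefly-to-Renilla ratio dropped or increased by a fixed fold versus the mean of GFP or LacZ controls across duplicate plates; lowering cut given as 1.5 and as 3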
Calls: active = hit: reporter lowered or raised; inactive = no hit
The screen tested about 24,000 reagents; this is an unselected part of those with a known target gene and a result. Over the whole deposit, 246 (1%) are marked active. 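Plates not normalised; calls are printed but the firefly/Renilla ratio behind them is not deposited; fold cut for lowering reported inconsistently.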 The raw values are shown without normalisation. Entries without a mark were called inactive. A plus sign joins genes that one reagent is predicted to hit. Not stated in the record: the amount of reagent.

| firefly reporter light, replicate 1 | firefly reporter light, replicate 2 | Renilla control light, replicate 1 | Renilla control light, replicate 2 | Target gene | DRSC id |
| --- | --- | --- | --- | --- | --- |
| 4.59e5 | 4.60e5 | 3.72e6 | 3.28e6 | Rab9Db + Rab9Fa | DRSC18445 |
| 5.33e5 | 4.79e5 | 3.22e6 | 2.83e6 | CG34348 (GeneID 32072) | DRSC19425 |
| 4.67e5 | 4.13e5 | 3.17e6 | 2.92e6 | CG34348 (GeneID 32072) | DRSC19644 |
| 85328 | 73822 | 5.41e5 | 7.00e5 | CG10562 (GeneID 43066) | DRSC14257 |
| 4.99e5 | 4.03e5 | 1.18e6 | 9.55e5 | CG10562 (GeneID 43066) | DRSC29099 |
| 36304 | 35399 | 3.61e5 | 4.00e5 | CG9706 (GeneID 39876) | DRSC11095 |
| 5.51e5 | 3.59e5 | 2.29e6 | 1.54e6 | CG17985 (GeneID 35702) | DRSC06702 |
| 1.30e5 | 1.38e5 | 2.84e5 | 2.66e5 | CG11588 (GeneID 39347) | DRSC09145 |
| 3.06e5 | 2.56e5 | 2.67e6 | 2.25e6 | CG11588 (GeneID 39347) | DRSC09846 |
| 86809 | 52462 | 1.36e6 | 1.36e6 | Cda9 (GeneID 36934) | DRSC06593 |
| 68410 | 96952 | 8.79e5 | 1.08e6 | Vha100-4 (GeneID 42214) | DRSC16282 |
| 1.97e5 | 2.60e5 | 6.65e5 | 6.92e5 | Vha100-4 (GeneID 42214) | DRSC26139 |
| 1.09e6 | 8.00e5 | 2.38e6 | 2.18e6 | mas (GeneID 38499) | DRSC08720 |
| 4.14e5 | 3.82e5 | 8.99e5 | 9.74e5 | mas (GeneID 38499) | DRSC28905 |
| 4.61e5 | 4.23e5 | 3.54e6 | 1.83e6 | Ranbp16 (GeneID 118436) | DRSC20160 |
| 1.29e5 | 2.08e5 | 1.49e6 | 2.89e6 | CG31076 (GeneID 318582) | DRSC16017 |
| 84762 | 1.29e5 | 2.18e5 | 2.26e5 | CG32204 (GeneID 317913) | DRSC09574 |
| 9.61e5 | 8.59e5 | 1.08e6 | 1.00e6 | CG32204 (GeneID 317913) | DRSC23663 |
| 8.60e5 | 7.72e5 | 1.28e6 | 1.35e6 | CG30324 (GeneID 246540) | DRSC22655 |
| 2.46e5 | 2.01e5 | 4.68e5 | 3.15e5 | CG30324 (GeneID 246540) | DRSC26815 |
| 2.11e5 | 1.53e5 | 1.60e6 | 1.56e6 | Tektin-C (GeneID 38653) | DRSC09741 |
| 2.63e5 | 2.07e5 | 6.41e5 | 6.85e5 | Tektin-C (GeneID 38653) | DRSC26608 |
| 2.17e5 | 1.95e5 | 2.39e6 | 1.99e6 | CG31802 (GeneID 318949) | DRSC02459 |
| 2.87e5 | 2.82e5 | 2.15e6 | 1.94e6 | CG8750 (GeneID 50285) | DRSC11037 |
| 58910 | 49547 | 7.85e5 | 6.86e5 | CG14017 (GeneID 33787) | DRSC02348 |
| 1.76e5 | 2.15e5 | 2.27e6 | 2.42e6 | acs (GeneID 38264) | DRSC08185 |
| 2.60e5 | 2.83e5 | 6.21e5 | 9.34e5 | acs (GeneID 38264) | DRSC27629 |
| 2.97e5 | 3.77e5 | 1.77e5 | 1.58e5 | Dscam4 (GeneID 2769008) | DRSC08913 |
| 2.62e5 | 2.25e5 | 2.45e6 | 1.64e6 | Dscam4 (GeneID 2769008) | DRSC10031 |
| 1.96e5 | 1.63e5 | 1.52e6 | 1.24e6 | Dscam4 (GeneID 2769008) | DRSC10329 |
| 2.70e5 | 2.33e5 | 3.97e6 | 2.38e6 | Dscam4 (GeneID 2769008) | DRSC10765 |
| 2.54e5 | 2.19e5 | 6.75e5 | 8.16e5 | Dscam4 (GeneID 2769008) | DRSC27460 |
| 8.03e5 | 9.86e5 | 1.23e6 | 1.53e6 | CG31775 + CG42586 | DRSC23266 |
| 7.96e5 | 7.41e5 | 1.37e6 | 5.51e5 | CG32655 (GeneID 318143) | DRSC18925 |
| 41394 | 47635 | 8.32e5 | 1.04e6 | CG11686 (GeneID 50024) | DRSC14350 |
| 1.27e5 | 1.32e5 | 2.46e6 | 2.67e6 | SLIRP2 (GeneID 41021) | DRSC16363 |
| 3.87e5 | 4.38e5 | 6.97e5 | 7.26e5 | SLIRP2 (GeneID 41021) | DRSC26237 |
| 6.94e5 | 8.49e5 | 1.64e6 | 1.83e6 | Tmep (GeneID 38185) | DRSC08215 |
| 3.61e5 | 3.04e5 | 7.39e5 | 6.94e5 | Tmep (GeneID 38185) | DRSC26652 |
| 1.72e5 | 2.06e5 | 2.03e6 | 1.90e6 | CG31275 (GeneID 326131) | DRSC16919 |

5 entries from above, showing only “firefly reporter light, replicate 1”.
CG31802 (GeneID 318949) [DRSC02459]	2.17e5
CG8750 (GeneID 50285) [DRSC11037]	2.87e5
CG14017 (GeneID 33787) [DRSC02348]	58910
acs (GeneID 38264) [DRSC08185]	1.76e5
acs (GeneID 38264) [DRSC27629]	2.60e5
